Measured values published in the supplement of paper PMC10849652.
The other results are listed elsewhere or left out. Residues, ends and D or L forms follow the SMILES beside them. *: point of attachment. Cbz = O=C(OCc1ccccc1)*

Chains of the proteins cited; added tags and fusions are not shown. Lines headed by an entry give the natural chain unless they say otherwise; changes in a name come on top.
UniProt Q9UHR5: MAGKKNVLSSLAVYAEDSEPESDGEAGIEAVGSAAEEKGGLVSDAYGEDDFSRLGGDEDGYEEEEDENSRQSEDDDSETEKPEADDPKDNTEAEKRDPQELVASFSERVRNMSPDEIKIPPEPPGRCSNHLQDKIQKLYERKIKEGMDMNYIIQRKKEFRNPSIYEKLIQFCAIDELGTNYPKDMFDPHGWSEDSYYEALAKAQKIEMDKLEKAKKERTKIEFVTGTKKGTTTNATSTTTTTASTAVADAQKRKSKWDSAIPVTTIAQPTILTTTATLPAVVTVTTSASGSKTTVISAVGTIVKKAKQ
UniProt O00422: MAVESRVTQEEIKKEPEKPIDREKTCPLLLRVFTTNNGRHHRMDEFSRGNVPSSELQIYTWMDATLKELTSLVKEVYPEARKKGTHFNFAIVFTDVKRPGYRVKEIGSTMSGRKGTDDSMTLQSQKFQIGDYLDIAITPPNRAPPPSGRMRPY
UniProt O14828: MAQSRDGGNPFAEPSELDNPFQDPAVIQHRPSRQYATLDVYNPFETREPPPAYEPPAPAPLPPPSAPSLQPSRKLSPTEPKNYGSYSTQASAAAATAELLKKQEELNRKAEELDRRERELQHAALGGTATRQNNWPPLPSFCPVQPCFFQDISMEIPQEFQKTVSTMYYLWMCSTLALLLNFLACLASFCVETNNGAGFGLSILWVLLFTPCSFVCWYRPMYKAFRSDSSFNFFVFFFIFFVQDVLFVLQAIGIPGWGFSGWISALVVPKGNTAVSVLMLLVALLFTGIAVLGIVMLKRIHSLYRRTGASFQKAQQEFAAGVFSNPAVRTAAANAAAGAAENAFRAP
UniProt Q96KG9: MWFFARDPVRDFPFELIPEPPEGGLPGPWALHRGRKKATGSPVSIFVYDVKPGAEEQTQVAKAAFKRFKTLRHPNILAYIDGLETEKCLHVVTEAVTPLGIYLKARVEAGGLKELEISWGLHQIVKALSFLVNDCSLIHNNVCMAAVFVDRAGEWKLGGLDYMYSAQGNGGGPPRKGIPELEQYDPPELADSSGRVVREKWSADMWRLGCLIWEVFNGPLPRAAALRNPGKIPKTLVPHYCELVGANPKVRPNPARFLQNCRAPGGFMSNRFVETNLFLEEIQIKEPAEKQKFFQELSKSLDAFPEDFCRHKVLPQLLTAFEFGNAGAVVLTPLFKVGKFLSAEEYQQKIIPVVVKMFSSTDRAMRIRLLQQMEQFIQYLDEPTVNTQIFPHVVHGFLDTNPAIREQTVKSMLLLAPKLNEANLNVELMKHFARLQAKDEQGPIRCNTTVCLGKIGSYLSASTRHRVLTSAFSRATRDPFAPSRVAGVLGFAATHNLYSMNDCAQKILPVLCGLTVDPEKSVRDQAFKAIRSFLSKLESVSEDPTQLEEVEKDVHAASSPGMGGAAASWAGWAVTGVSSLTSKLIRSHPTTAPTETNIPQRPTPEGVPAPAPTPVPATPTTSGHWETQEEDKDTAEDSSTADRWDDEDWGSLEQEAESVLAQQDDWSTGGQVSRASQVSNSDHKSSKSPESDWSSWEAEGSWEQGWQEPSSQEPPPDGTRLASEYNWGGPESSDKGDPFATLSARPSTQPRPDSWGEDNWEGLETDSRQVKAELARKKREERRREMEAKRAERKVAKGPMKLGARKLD
UniProt Q5VWQ0: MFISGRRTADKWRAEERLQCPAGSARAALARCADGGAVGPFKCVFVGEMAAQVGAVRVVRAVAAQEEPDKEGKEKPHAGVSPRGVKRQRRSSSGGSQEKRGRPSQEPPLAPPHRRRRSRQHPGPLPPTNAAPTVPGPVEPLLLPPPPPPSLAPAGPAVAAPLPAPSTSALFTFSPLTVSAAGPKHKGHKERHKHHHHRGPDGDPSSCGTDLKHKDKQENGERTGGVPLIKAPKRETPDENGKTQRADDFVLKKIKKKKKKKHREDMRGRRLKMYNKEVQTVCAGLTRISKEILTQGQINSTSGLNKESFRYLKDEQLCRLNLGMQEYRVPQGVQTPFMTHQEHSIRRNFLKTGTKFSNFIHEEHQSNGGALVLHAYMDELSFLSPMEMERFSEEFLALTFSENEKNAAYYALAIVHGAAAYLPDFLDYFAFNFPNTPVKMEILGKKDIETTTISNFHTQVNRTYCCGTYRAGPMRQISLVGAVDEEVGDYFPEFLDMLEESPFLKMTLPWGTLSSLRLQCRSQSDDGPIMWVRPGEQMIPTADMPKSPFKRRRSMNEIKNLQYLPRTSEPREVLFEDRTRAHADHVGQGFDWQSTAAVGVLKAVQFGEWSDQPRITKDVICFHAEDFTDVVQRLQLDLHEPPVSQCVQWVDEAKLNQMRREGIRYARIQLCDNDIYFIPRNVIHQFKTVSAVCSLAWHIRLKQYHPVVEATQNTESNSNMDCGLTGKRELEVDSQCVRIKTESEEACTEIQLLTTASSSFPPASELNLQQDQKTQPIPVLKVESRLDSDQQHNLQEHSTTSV
UniProt Q9BW04: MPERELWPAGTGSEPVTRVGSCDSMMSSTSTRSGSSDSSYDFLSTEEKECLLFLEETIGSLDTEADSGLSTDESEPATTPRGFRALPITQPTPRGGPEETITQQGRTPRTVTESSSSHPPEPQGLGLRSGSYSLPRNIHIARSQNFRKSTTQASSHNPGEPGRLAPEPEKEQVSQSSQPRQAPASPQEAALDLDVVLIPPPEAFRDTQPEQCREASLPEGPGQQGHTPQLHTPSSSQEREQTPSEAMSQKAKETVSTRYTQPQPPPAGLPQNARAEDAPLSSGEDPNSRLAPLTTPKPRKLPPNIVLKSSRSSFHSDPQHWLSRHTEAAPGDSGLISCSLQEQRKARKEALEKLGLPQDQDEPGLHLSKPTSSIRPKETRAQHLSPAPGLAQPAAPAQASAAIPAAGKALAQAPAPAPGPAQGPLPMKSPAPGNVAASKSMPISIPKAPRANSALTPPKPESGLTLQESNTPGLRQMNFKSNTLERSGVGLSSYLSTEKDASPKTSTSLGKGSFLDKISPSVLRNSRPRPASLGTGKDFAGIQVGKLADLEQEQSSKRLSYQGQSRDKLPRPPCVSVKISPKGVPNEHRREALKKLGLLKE
UniProt Q9Y3B9: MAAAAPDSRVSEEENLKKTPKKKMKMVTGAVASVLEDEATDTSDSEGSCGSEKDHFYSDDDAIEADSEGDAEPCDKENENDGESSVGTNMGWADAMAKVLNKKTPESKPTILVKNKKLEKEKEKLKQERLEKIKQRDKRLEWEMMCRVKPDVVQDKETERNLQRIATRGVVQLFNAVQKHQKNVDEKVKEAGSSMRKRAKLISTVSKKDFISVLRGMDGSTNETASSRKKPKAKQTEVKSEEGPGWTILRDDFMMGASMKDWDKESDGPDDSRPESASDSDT
UniProt O43290: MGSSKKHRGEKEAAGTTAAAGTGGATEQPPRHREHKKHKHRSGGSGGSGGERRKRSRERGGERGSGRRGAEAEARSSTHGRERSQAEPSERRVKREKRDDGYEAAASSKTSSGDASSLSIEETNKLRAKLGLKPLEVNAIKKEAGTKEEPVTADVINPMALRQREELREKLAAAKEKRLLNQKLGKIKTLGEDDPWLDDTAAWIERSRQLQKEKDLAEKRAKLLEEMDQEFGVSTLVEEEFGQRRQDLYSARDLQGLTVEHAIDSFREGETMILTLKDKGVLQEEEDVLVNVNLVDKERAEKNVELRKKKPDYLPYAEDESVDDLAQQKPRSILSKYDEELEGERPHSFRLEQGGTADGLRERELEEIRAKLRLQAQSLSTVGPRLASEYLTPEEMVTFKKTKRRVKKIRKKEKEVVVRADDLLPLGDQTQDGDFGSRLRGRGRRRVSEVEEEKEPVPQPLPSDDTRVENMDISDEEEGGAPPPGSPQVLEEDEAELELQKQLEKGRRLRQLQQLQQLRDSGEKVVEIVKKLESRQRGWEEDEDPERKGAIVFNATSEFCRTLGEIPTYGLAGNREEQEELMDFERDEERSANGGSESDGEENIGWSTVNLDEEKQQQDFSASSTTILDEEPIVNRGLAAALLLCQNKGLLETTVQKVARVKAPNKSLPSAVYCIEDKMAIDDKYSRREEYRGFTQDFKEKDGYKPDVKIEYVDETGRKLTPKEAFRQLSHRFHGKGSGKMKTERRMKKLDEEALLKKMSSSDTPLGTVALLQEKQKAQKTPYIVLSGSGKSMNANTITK
UniProt P31949: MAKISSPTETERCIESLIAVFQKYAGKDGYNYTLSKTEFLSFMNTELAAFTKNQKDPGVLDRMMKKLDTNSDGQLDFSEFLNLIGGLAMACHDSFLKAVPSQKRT
UniProt O15126: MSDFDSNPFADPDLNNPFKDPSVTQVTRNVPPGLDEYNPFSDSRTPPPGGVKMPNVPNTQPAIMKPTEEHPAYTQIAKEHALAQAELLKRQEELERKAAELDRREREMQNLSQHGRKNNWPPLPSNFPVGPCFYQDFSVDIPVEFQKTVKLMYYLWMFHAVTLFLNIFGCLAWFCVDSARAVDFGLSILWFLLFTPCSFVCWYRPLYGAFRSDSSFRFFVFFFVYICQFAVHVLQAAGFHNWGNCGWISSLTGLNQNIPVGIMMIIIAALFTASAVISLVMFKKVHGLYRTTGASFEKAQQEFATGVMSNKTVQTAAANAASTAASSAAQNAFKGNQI
UniProt Q9BY50: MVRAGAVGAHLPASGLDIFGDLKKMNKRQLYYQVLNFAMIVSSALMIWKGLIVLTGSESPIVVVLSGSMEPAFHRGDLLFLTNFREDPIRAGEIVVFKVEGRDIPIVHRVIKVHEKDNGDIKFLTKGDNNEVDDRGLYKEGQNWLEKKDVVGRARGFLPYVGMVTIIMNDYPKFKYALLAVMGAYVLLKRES
UniProt Q8WU76: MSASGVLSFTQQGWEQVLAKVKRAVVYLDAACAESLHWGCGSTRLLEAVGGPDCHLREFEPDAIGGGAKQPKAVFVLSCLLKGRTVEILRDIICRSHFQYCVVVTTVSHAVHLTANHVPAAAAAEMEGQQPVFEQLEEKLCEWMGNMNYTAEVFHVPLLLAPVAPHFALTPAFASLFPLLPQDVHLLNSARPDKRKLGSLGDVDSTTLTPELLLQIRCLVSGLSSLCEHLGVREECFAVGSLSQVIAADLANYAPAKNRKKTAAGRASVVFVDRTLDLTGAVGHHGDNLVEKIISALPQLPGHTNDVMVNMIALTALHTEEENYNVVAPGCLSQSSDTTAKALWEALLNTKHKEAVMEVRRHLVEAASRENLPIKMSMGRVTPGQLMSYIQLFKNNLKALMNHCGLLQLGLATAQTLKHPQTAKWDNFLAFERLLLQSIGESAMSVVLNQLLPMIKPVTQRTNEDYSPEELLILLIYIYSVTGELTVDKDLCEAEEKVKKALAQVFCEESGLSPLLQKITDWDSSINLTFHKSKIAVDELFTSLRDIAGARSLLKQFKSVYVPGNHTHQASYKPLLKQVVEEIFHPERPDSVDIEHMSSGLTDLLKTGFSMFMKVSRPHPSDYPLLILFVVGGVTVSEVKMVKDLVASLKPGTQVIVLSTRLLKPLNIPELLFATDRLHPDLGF
UniProt Q969E2: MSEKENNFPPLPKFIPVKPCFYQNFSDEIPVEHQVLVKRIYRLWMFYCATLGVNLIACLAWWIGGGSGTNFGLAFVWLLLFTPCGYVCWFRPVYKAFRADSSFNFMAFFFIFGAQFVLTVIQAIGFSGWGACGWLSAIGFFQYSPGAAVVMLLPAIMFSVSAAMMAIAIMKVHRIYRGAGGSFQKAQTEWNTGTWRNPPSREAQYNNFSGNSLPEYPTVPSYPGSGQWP
UniProt Q8WVM8, whole entry, looked up: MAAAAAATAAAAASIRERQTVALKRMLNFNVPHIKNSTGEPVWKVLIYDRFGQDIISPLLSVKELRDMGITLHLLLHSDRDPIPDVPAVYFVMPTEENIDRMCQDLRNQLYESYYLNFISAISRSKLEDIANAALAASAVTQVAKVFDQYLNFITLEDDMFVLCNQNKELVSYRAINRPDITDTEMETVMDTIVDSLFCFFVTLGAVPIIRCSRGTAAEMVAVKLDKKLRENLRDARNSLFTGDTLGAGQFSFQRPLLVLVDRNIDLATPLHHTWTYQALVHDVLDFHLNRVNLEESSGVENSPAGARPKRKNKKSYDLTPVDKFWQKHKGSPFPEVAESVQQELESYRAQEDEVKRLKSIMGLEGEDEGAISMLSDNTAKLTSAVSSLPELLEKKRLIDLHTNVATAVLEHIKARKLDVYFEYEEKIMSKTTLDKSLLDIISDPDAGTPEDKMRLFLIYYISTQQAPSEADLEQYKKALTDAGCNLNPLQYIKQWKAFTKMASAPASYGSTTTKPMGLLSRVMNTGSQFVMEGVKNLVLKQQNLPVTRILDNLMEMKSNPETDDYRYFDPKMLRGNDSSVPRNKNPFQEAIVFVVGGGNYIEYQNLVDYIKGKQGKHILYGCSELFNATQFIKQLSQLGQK

How the values were obtained:
Assay in all cases: log2 fold change, soluble protein after heating vs DMSO (PISA); higher = thermal stabilisation; K562 cells, 10 uM, 30 min; active = over 0.2 and 3.5 SD of the protein, either way, in both replicates (recomputed)
IRAK-1-4 Inhibitor I = compound: C1COCCN1CCN2C3=CC=CC=C3N=C2NC(=O)C4=CC(=CC=C4)[N+](=O)[O-] [IRAK-1-4 Inhibitor I]
In short: (§1)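 Thermal stability values are relative to control samples and come from duplicates. They are expressed as log2 fold changes. For measurement, K562 cells (2×10^6 cells/mL) received 10 μM compound for 30 min, and aliquots were heated for 3 min over 48°C-58°C, pooled, and extracted at 4°C in PBS with 0.5% NP-40. Soluble protein, the supernatant after 21,000xg for 90 min, was quantified by TMTpro 16plex LC-MS/MS with equalised channel sums.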

ibrutinib = compound: C=CC(=O)N1CCC[C@@H](n2nc(-c3ccc(Oc4ccccc4)cc3)c3c(N)ncnc32)C1 [ibrutinib]
In short: as §1

[1] = compound: CC(=O)c1cnc2ccc(-c3cc(Cl)c(O)c(Cl)c3)nc2c1N[C@H]1CC[C@H](CN(C)C)CC1
In short: as §1

ralimetinib = compound: CC(C)(C)Cn1c(N)nc2ccc(-c3[nH]c(C(C)(C)C)nc3-c3ccc(F)cc3)nc21 [ralimetinib]
In short: as §1

[2] = compound: CC(C)(O)CC(=O)NCCn1ccc2ncnc(Nc3ccc(Oc4cccc(C(F)(F)F)c4)c(Cl)c3)c21
In short: as §1

[3] = compound: CC(C)C1=C2N=C(C=C(N2N=C1)NCC3=CC=CC=C3)NCCCCCCN
In short: as §1

[4] = compound: CC(C)C[C@@H](C=O)NC(=O)[C@H](CC(C)C)NC(=O)[C@H](CC(C)C)NC(=O)OCc1ccccc1
In short: as §1

pinometostat = compound: CC(C)N(C[C@H]1O[C@@H](n2cnc3c(N)ncnc32)[C@H](O)[C@@H]1O)[C@H]1C[C@@H](CCc2nc3cc(C(C)(C)C)ccc3[nH]2)C1 [pinometostat]
In short: as §1

[5] = compound: CC1=C(C(CC(=O)N1)C2=CC=C(C=C2)C(F)(F)F)C(=O)NC3=C(C=C4C(=C3)C=NN4)F
In short: as §1

[6] = compound: CC1=C(C2=C(C=C1)C(=O)C3=CC=CC=C3N2CCCN)C
In short: as §1

[7] = compound: CC1=C(C=C(C=C1)NC(=O)C2=CC(=CC=C2)C(C)(C)C#N)NC3=CC4=C(C=C3)N=CN(C4=O)C
In short: as §1

[8] = compound: CC1=C(C=C(C=C1)NC(=O)C2=CC(=CC=C2)N(C)C)NC(=O)C3=CC=C(C=C3)O
In short: as §1

[9] = compound: CC1=CC=C(C=C1)SC2=C3C=C(SC3=CN=C2)C(=O)N
In short: as §1

[10] = compound: CC1=NC(=CC=C1)C2=C(N=C(N2)C(C)(C)C)C3=CC4=NC=CN=C4C=C3
In short: as §1

Nexturastat A = compound: CCCCN(Cc1ccc(C(=O)NO)cc1)C(=O)Nc1ccccc1 [Nexturastat A]
In short: as §1

vemurafenib = compound: CCCS(=O)(=O)Nc1ccc(F)c(C(=O)c2c[nH]c3ncc(-c4ccc(Cl)cc4)cc23)c1F [vemurafenib]
In short: as §1

[11] = compound: CCCS(=O)(=O)Nc1ccc(F)c(C(=O)c2c[nH]c3ncc(Cl)cc23)c1F
In short: as §1

[12] = compound: CCCc1cc(C)[nH]c(=O)c1CNC(=O)c1cc(-c2ccnc(N3CCN(C)CC3)c2)cc2c1cnn2C(C)C
In short: as §1

givinostat = compound: CCN(CC)Cc1ccc2cc(COC(=O)Nc3ccc(C(=O)NO)cc3)ccc2c1 [givinostat]
In short: as §1

barasertib = compound: CCN(CCCOc1ccc2c(Nc3cc(CC(=O)Nc4cccc(F)c4)[nH]n3)ncnc2c1)CCOP(=O)(O)O [barasertib]
In short: as §1

Measured: log2 fold change

SAP30BP (UniProt Q9UHR5)
inactive: IRAK-1-4 Inhibitor I 0.079 | ibrutinib -0.035 | [1] -0.039 | ralimetinib -0.024 | [2] -0.036 | [3] 0.053 | [4] 0.067 | pinometostat -0.032 | [5] 0.028 | [6] -0.073 | [7] -0.04 | [8] 0.046 | [9] -0.003 | [10] -0.025 | Nexturastat A -0.059 | vemurafenib -0.011 | [11] -0.025 | [12] -0.008 | givinostat 0.038 | barasertib 0.014

SAP18 isoform 2 (UniProt O00422)
inactive: IRAK-1-4 Inhibitor I 0.07 | ibrutinib -0.002 | [1] -0.031 | ralimetinib 0.05 | [2] 0.185 | [3] -0.031 | [4] 0.099 | pinometostat 0.036 | [5] -0.001 | [6] -0.12 | [7] 0.2 | [8] 0.074 | [9] -0.105 | [10] -0.038 | Nexturastat A 0.269 | vemurafenib -0.032 | [11] -0.02 | [12] 0.04 | givinostat -0.029 | barasertib -0.056

SCARB2 (UniProt Q14108)
inactive: IRAK-1-4 Inhibitor I 0.002 | ibrutinib 0.014 | [1] 0.084 | ralimetinib 0.012 | [2] 0.073 | [3] -0.021 | [4] -0.04 | pinometostat -0.004 | [5] 0.031 | [6] 0.013 | [7] -0.044 | [8] 0.05 | [9] 0.01 | [10] -0.003 | Nexturastat A -0.009 | vemurafenib 0.116 | [11] 0.069 | [12] -0.034 | givinostat -0.037 | barasertib -0.031

2 successive entries out of the list so far:
SAP18 isoform 2 (UniProt O00422)
inactive: IRAK-1-4 Inhibitor I 0.07 | ibrutinib -0.002 | [1] -0.031 | ralimetinib 0.05 | [2] 0.185 | [3] -0.031 | [4] 0.099 | pinometostat 0.036 | [5] -0.001 | [6] -0.12 | [7] 0.2 | [8] 0.074 | [9] -0.105 | [10] -0.038 | Nexturastat A 0.269 | vemurafenib -0.032 | [11] -0.02 | [12] 0.04 | givinostat -0.029 | barasertib -0.056

SCARB2 (UniProt Q14108)
inactive: IRAK-1-4 Inhibitor I 0.002 | ibrutinib 0.014 | [1] 0.084 | ralimetinib 0.012 | [2] 0.073 | [3] -0.021 | [4] -0.04 | pinometostat -0.004 | [5] 0.031 | [6] 0.013 | [7] -0.044 | [8] 0.05 | [9] 0.01 | [10] -0.003 | Nexturastat A -0.009 | vemurafenib 0.116 | [11] 0.069 | [12] -0.034 | givinostat -0.037 | barasertib -0.031

Next entries follow.

RTN3 (UniProt O95197)
inactive: IRAK-1-4 Inhibitor I 0.017 | ibrutinib 0.005 | [1] -0.028 | ralimetinib -0.065 | [2] 0.038 | [3] 0.013 | [4] -0.002 | pinometostat -0.036 | [5] 0.023 | [6] 0.013 | [7] -0.026 | [8] -0.046 | [9] 0.007 | [10] 0.015 | Nexturastat A -0.021 | vemurafenib 0.021 | [11] -0.031 | [12] -0.119 | givinostat 0.023 | barasertib -0.033

SCAMP3 (UniProt O14828)
inactive: IRAK-1-4 Inhibitor I 0.039 | ibrutinib -0.017 | [1] -0.013 | ralimetinib -0.054 | [2] 0.001 | [3] -0.012 | [4] 0 | pinometostat -0.065 | [5] 0.009 | [6] -0.06 | [7] -0.014 | [8] 0.092 | [9] 0.007 | [10] 0.039 | Nexturastat A -0.099 | vemurafenib 0 | [11] 0.037 | [12] 0.296 | givinostat -0.001 | barasertib -0.013

SCYL1 (UniProt Q96KG9)
inactive: IRAK-1-4 Inhibitor I -0.01 | ibrutinib -0.027 | [1] 0 | ralimetinib 0.012 | [2] -0.044 | [3] 0.112 | [4] 0.031 | pinometostat -0.02 | [5] 0.013 | [6] 0.015 | [7] -0.002 | [8] -0.029 | [9] 0.012 | [10] 0.051 | Nexturastat A -0.08 | vemurafenib 0.015 | [11] 0.022 | [12] 0.04 | givinostat -0.045 | barasertib 0.031

RSBN1 (UniProt Q5VWQ0)
inactive: IRAK-1-4 Inhibitor I -0.033 | ibrutinib 0.022 | [1] 0.21 | ralimetinib 0.062 | [2] 0.08 | [3] 0.238 | [4] 0.082 | pinometostat 0.374 | [5] 0.015 | [6] -0.329 | [7] -0.083 | [8] -0.004 | [9] -0.019 | [10] -0.099 | Nexturastat A 0.343 | vemurafenib -0.136 | [11] -0.009 | [12] 0.065 | givinostat -0.067 | barasertib -0.023

SARG (UniProt Q9BW04)
inactive: IRAK-1-4 Inhibitor I 0.048 | ibrutinib 0.029 | [1] 0.041 | ralimetinib -0.038 | [2] -0.024 | [3] 0.04 | [4] 0.056 | pinometostat 0.004 | [5] -0.013 | [6] 0.072 | [7] -0.045 | [8] -0.056 | [9] 0.037 | [10] -0.017 | Nexturastat A -0.021 | vemurafenib 0.024 | [11] -0.009 | [12] 0.01 | givinostat 0.122 | barasertib -0.023

RRP15 (UniProt Q9Y3B9)
inactive: IRAK-1-4 Inhibitor I 0.049 | ibrutinib 0.001 | [1] 0.029 | ralimetinib 0.029 | [2] 0.067 | [3] 0.103 | [4] 0.032 | pinometostat -0.011 | [5] 0.039 | [6] -0.097 | [7] -0.029 | [8] -0.001 | [9] -0.03 | [10] -0.014 | Nexturastat A -0.026 | vemurafenib -0.028 | [11] -0.018 | [12] -0.015 | givinostat -0.012 | barasertib -0.056

SART1 (UniProt O43290)
inactive: IRAK-1-4 Inhibitor I -0.265 | ibrutinib 0.033 | [1] 0.036 | ralimetinib 0.218 | [2] 0.043 | [3] -0.021 | [4] 0.118 | pinometostat 0.269 | [5] 0.049 | [6] -0.445 | [7] 0.014 | [8] -0.032 | [9] -0.011 | [10] -0.031 | Nexturastat A 0.274 | vemurafenib -0.11 | [11] 0.019 | [12] 0.118 | givinostat 0.088 | barasertib -0.096

S100A11 (UniProt P31949)
inactive: IRAK-1-4 Inhibitor I 0.026 | ibrutinib 0 | [1] 0.018 | ralimetinib -0.04 | [2] 0 | [3] 0.13 | [4] -0.05 | pinometostat -0.034 | [5] -0.001 | [6] 0.152 | [7] 0.005 | [8] -0.013 | [9] 0.02 | [10] 0.12 | Nexturastat A 0.031 | vemurafenib 0.03 | [11] -0.001 | [12] -0.016 | givinostat -0.094 | barasertib 0.063

SCAMP1 (UniProt O15126)
inactive: IRAK-1-4 Inhibitor I 0.02 | ibrutinib 0.037 | [1] -0.003 | ralimetinib -0.072 | [2] 0.019 | [3] 0.004 | [4] -0.024 | pinometostat 0.015 | [5] 0.002 | [6] -0.059 | [7] -0.001 | [8] 0.113 | [9] -0.026 | [10] -0.012 | Nexturastat A 0.029 | vemurafenib -0.05 | [11] -0.059 | [12] -0.124 | givinostat 0.034 | barasertib -0.036

SEC11C (UniProt Q9BY50)
inactive: IRAK-1-4 Inhibitor I 0.021 | ibrutinib 0.034 | [1] 0.004 | ralimetinib 0.013 | [2] -0.012 | [3] -0.1 | [4] 0.021 | pinometostat 0.084 | [5] -0.011 | [6] 0.015 | [7] -0.003 | [8] -0.003 | [9] 0.035 | [10] 0.002 | Nexturastat A -0.053 | vemurafenib 0.041 | [11] 0.058 | [12] 0.06 | givinostat 0.048 | barasertib 0.031

SCFD2 (UniProt Q8WU76)
inactive: IRAK-1-4 Inhibitor I -0.076 | ibrutinib -0.098 | [1] 0 | ralimetinib 0.138 | [2] -0.009 | [3] -0.025 | [4] 0.087 | pinometostat 0.16 | [5] 0.003 | [6] 0.032 | [7] 0.014 | [8] -0.041 | [9] 0.072 | [10] 0.02 | Nexturastat A 0.024 | vemurafenib -0.022 | [11] 0.026 | [12] 0.071 | givinostat 0.036 | barasertib -0.012

SCAMP4 (UniProt Q969E2)
inactive: IRAK-1-4 Inhibitor I 0.034 | ibrutinib 0.039 | [1] 0.024 | ralimetinib -0.025 | [2] 0 | [3] 0.028 | [4] 0.043 | pinometostat -0.022 | [5] 0.027 | [6] 0.063 | [7] -0.021 | [8] -0.001 | [9] 0.079 | [10] -0.057 | Nexturastat A -0.023 | vemurafenib -0.017 | [11] 0.016 | [12] -0.023 | givinostat 0.034 | barasertib 0.017

SCFD1 (UniProt Q8WVM8)
inactive: IRAK-1-4 Inhibitor I -0.047 | ibrutinib -0.001 | [1] 0.008 | ralimetinib 0.05 | [2] -0.116 | [3] -0.045 | [4] 0.008 | pinometostat 0.01 | [5] -0.049 | [6] 0.037 | [7] 0.052 | [8] -0.064 | [9] 0.011 | [10] 0.021 | Nexturastat A -0.013 | vemurafenib 0.042 | [11] 0.058 | [12] 0.042 | givinostat 0.032 | barasertib 0.032
